PubChem BioAssay AID445 (National Center for Advancing Translational Sciences (NCATS), 2006)
The other results are listed elsewhere or left out. Shown are side measurements of this screen, not its main read-out; they come without a call. Most of these compounds were active or inconclusive in the main read-out, so they are no random draw. Words in brackets tell the shape of the fitted curve; partial curves, single points and poor fits give uncertain potencies.

Assay: IkB Signaling
Conditions: ABC-DLBCL IkBa-CBG/CBR dual luciferase ratio (green luciferase fused to IkBa over red control in OCI-Ly3 lymphoma cells), 4 h
Summary of the method: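 Luminescence ratio of IκBα-fused green versus native red beetle luciferase in OCI-Ly3 cells, 4 h post-doxycycline with compound; red signal alone, scaled from basal (0%) to zero light (-100%), flagged nonspecific or cytotoxic effects.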

[1] = measured here: control luc red channel unless noted
[2] = measured here: IkB-luc green channel
[3] = measured here: control luc red channel

Which AC50 [1] does the source give for `COc1c(C)cc(S(=O)(=O)NCCc2c(C)[nH]c3ccccc23)c(C)c1C` here?
Its AC50 is 39.8 µM [falling, single point].

With `COc1ccccc1CNC(=O)CCn1c(=O)c2ccccc2n(CC(=O)Nc2cccc(Cl)c2)c1=O` as the compound, how does the AC50 [2] read?
Its AC50 is 39.8 µM [rising, single point].

And the AC50 [3]?
The AC50 was 3.98 µM [falling, full curve].

With `Cc1c(NC(=O)c2cc(-c3ccc(Cl)c(Cl)c3)on2)c(=O)n(-c2ccccc2)n1C` as the compound, how does the AC50 [1] read?
Its AC50 is 12.6 µM [falling, partial curve].

With `CCc1cccc(-n2c(C)nc3c(cnn3-c3ccc(Cl)cc3)c2=O)c1` as the compound, how does the AC50 [1] read?
Its AC50 is 31.6 µM [falling, single point].

Which AC50 [1] does the source give for `Cc1cn2c(=O)cc(COc3cccc(NC(=O)c4ccccc4C)c3)nc2s1` here?
Its AC50 is 0.794 µM [falling, full curve].

For `COc1ccc(OC)c(NC(=O)Cc2coc3ccc(C(C)C)cc23)c1`, which AC50 [1] is on record?
Its AC50 is 20 µM [falling, single point].

Which AC50 [1] does the source give for `O=C(O)c1cccc(COc2ccccc2Cl)c1` here?
The AC50 was 2.51 µM [falling, full curve].

With `CCOC(=O)c1c(-c2ccccc2)oc2ccc(N(C(C)=O)S(=O)(=O)c3cc(C)ccc3C)cc12` as the compound, how does the AC50 [1] read?
The AC50 was 3.16 µM [falling, partial curve, poor fit].

With `Cc1ccc(O)c(C(CC(=O)NCC2(c3ccccc3)CCCC2)c2ccccc2)c1` (stereo not given) as the compound, how does the AC50 [1] read?
Its AC50 is 7.94 µM [falling, partial curve].

With `CCc1c(C)nc(SCC(=O)N2CCN(c3ccccc3OC)CC2)[nH]c1=O` as the compound, how does the AC50 [1] read?
Its AC50 is 12.6 µM [falling, partial curve].

For `COc1ccc(OC)c(NC(=O)c2cc3c(=O)oc4ccccc4c3s2)c1`, which AC50 [1] is on record?
The AC50 was 3.16 µM [falling, partial curve].

For `CCN(CC)c1nn2c(=O)c(C(=O)NCCc3ccccc3)cnc2s1`, which AC50 [1] is on record?
Its AC50 is 3.98 µM [rising, partial curve].

With `Cc1ccc(C)c(NC(=O)c2ccc3c(O)c(S(=O)(=O)c4ccc(Cl)cc4)c(=O)[nH]c3c2)c1` as the compound, how does the AC50 [1] read?
Its AC50 is 15.8 µM [falling, partial curve].

Which AC50 [1] does the source give for `O=C(NCC(c1cccnc1)N1CCN(c2ccccc2F)CC1)c1cccc(Cl)c1` (stereo not given) here?
The AC50 was 15.8 µM [falling, partial curve].

With `Cn1cc(Cl)c(-c2nc3ccccc3[nH]2)n1` as the compound, how does the AC50 [1] read?
The AC50 was 12.6 µM [falling, partial curve].

With `CCOc1ccc(-c2nonc2NC(=O)c2oc3cc(C)ccc3c2C)cc1` as the compound, how does the AC50 [1] read?
The AC50 was 3.98 µM [falling, full curve].

With `Fc1ccc(-c2noc3ncnc(N4CCN(c5ccccc5)CC4)c23)cc1` as the compound, how does the AC50 [1] read?
Its AC50 is 3.16 µM [falling, single point].

With `O=C(NCc1ccc(F)cc1)c1ccc2c(Cl)c3c(nc2c1)CCCC3` as the compound, how does the AC50 [1] read?
The AC50 was 10 µM [falling, partial curve].

For `CCOc1ccc(NC(=O)Cn2c(=O)n(-c3cccc(Cl)c3)c(=O)c3c2c2cc(C)ccc2n3C)cc1`, which AC50 [1] is on record?
Its AC50 is 5.01 µM [falling, partial curve].

Which AC50 [1] does the source give for `COc1ccc(S(=O)(=O)Nc2cccc(-c3ccc(N4CCC(C)CC4)nn3)c2)c(OC)c1` here?
Its AC50 is 2.51 µM [falling, full curve].

Which AC50 [2] does the source give for `COc1cc(NC(=O)c2ccc3oc(=O)c(S(=O)(=O)c4ccccc4)cc3c2)cc(OC)c1` here?
Its AC50 is 6.31 µM [rising, single point].

What about the AC50 [3] of the same compound?
Its AC50 is 10 µM [falling, partial curve].

With `CCOc1cccc(C2c3[nH]c4ccccc4c3CCN2C(=O)CSc2ccccc2)c1` (stereo not given) as the compound, how does the AC50 [1] read?
The AC50 was 2.51 µM [falling, full curve].

For `Cc1cccc(C(=O)N2CCc3cc(CNC(=O)COc4ccc(Cl)cc4)ccc32)c1`, which AC50 [1] is on record?
The AC50 was 39.8 µM [falling, single point].

With `O=C(c1cc(-c2ccc(Cl)cc2)on1)N1CCOCC1` as the compound, how does the AC50 [1] read?
Its AC50 is 2 µM [falling, full curve].

Which AC50 [1] does the source give for `COC(=O)c1ccc(CSc2nnnn2-c2ccccc2)o1` here?
The AC50 was 31.6 µM [rising, single point] [measured here: IkB-luc green channel].

With `Cc1ccc(N2C(=O)CSC23C(=O)N(Cc2ccccc2F)c2ccccc23)cc1F` (stereo not given) as the compound, how does the AC50 [1] read?
The AC50 was 31.6 µM [falling, partial curve].

For `COc1cc2c(=O)c(C(=O)c3ccc(C)c(C)c3)cn(Cc3ccc(F)cc3)c2cc1OC`, which AC50 [1] is on record?
Its AC50 is 25.1 µM [falling, partial curve].

Which AC50 [1] does the source give for `CCOc1cc(CNC(=O)Cn2c(=O)c3cccn3c3ccc(F)cc32)cc(OCC)c1OCC` here?
The AC50 was 0.794 µM [rising, full curve].

Which AC50 [1] does the source give for `COc1cc(OC)c(NC(=O)c2cc3c(=O)oc4ccc(C)cc4c3s2)cc1Cl` here?
The AC50 was 2 µM [rising, full curve].

Which AC50 [1] does the source give for `Cc1ccc(-n2ncc3c(NCCO)ncnc32)cc1Cl` here?
The AC50 was 25.1 µM [falling, single point].

For `Cc1cc(NC(=O)c2cc(-c3ccc(Cl)cc3)on2)n(-c2ccccc2)n1`, which AC50 [1] is on record?
Its AC50 is 10 µM [falling, full curve].

With `COC(=O)c1cc2oc3ccccc3c2n1CC(=O)Nc1ccc(C)c(F)c1` as the compound, how does the AC50 [1] read?
Its AC50 is 15.8 µM [falling, partial curve].

For `Cc1ccc(Cl)cc1NC(=O)COC(=O)CC(C)(C)CC1=NS(=O)(=O)c2ccccc2N1`, which AC50 [1] is on record?
Its AC50 is 10 µM [falling, partial curve].

With `CN(CC(=O)Nc1ccc2c(c1)OCCO2)S(=O)(=O)c1cccc2cccnc12` as the compound, how does the AC50 [1] read?
The AC50 was 6.31 µM [falling, partial curve].

With `CCOC(=O)c1ccccc1NC(=O)CN1CCCN(Cc2cc(C)ccc2C)S1(=O)=O` as the compound, how does the AC50 [1] read?
The AC50 was 31.6 µM [falling, partial curve].

For `CCOC(=O)c1[nH]c2ccccc2c1NC(=O)c1ccccc1F`, which AC50 [1] is on record?
Its AC50 is 0.251 µM [falling, partial curve, poor fit].

For `Cc1ncsc1C(=O)Nc1nc2c(s1)CC(C)CC2` (stereo not given), which AC50 [1] is on record?
Its AC50 is 3.16 µM [falling, full curve, poor fit].

For `COc1ccc(C)cc1NC(=O)CSc1nnc(COc2ccc(Cl)cc2)n1Cc1ccco1`, which AC50 [1] is on record?
The AC50 was 7.94 µM [falling, full curve].

For `Cc1ccccc1NC(=O)c1ccc2[nH]c(C)c(C)c2c1`, which AC50 [1] is on record?
The AC50 was 15.8 µM [falling, partial curve].

Which AC50 [1] does the source give for `CCc1cccc(C)c1NC(=O)CCS(=O)(=O)c1cc(Br)cc2c1N(C(=O)C1CC1)CC2` here?
The AC50 was 3.16 µM [rising, single point].

Which AC50 [1] does the source give for `Cc1sc2ncnc(N3CCCCC3C)c2c1C` (stereo not given) here?
Its AC50 is 31.6 µM [falling, partial curve].

For `COc1ccc(C(=O)NCC(c2cccnc2)N2CCN(c3ccccc3)CC2)cc1` (stereo not given), which AC50 [1] is on record?
The AC50 was 25.1 µM [falling, single point].

With `CCCc1nn2c(=O)cc(COC(=O)c3cccc(NC(=O)c4cccs4)c3)nc2s1` as the compound, how does the AC50 [1] read?
Its AC50 is 0.794 µM [falling, full curve].

With `COc1cccc(Cn2c(=O)cc(C)c3c(C)nn(C)c32)c1` as the compound, how does the AC50 [1] read?
The AC50 was 0.158 µM [rising, full curve].

Which AC50 [1] does the source give for `COc1ccc(S(=O)Cc2ccc(C(=O)N3CCN(c4cccc(C)c4C)CC3)o2)cc1` (stereo not given) here?
The AC50 was 15.8 µM [falling, single point].

With `Cc1c(Cl)cccc1NC(=O)Cn1c(=O)n(Cc2ccco2)c(=O)c2sc3ccccc3c21` as the compound, how does the AC50 [1] read?
Its AC50 is 0.0158 µM [rising, full curve, poor fit].

Which AC50 [1] does the source give for `O=C(Nc1ccc(C(=O)OCc2cc(=O)n3c4c(sc3n2)CCCC4)cc1)c1ccc(F)cc1` here?
Its AC50 is 10 µM [falling, partial curve].

Which AC50 [1] does the source give for `O=C(CCCCn1c(=O)c2ccccc2n(CC(=O)Nc2cccc(C(F)(F)F)c2)c1=O)NCc1ccc2c(c1)OCO2` here?
Its AC50 is 7.94 µM [falling, full curve].

Which AC50 [1] does the source give for `CCOC(=O)c1ccc(Nc2nn3c(=O)c4ccccc4nc3s2)cc1` here?
The AC50 was 0.158 µM [falling, full curve].

For `COc1ccc(OC)c(NC(=O)c2ccc3c(Cl)c4c(nc3c2)CCCC4)c1`, which AC50 [1] is on record?
The AC50 was 2.51 µM [falling, full curve].

With `CCCCN(C)C(=O)Cn1cnc2sc(C)c(S(=O)(=O)N3CCC(C)CC3)c2c1=O` as the compound, how does the AC50 [1] read?
The AC50 was 0.0251 µM [falling, full curve, poor fit].

Which AC50 [1] does the source give for `COc1ccccc1-c1nc2s/c(=C\c3cccs3)c(=O)n2n1` here?
The AC50 was 2 µM [falling, partial curve].

With `Cc1ccc(S(=O)(=O)/C=C\C#N)cc1` as the compound, how does the AC50 [1] read?
Its AC50 is 2.51 µM [falling, full curve].

For `CCN(CC)c1ccc(C2Nc3ccccc3-c3cc(C)nn32)cc1` (stereo not given), which AC50 [1] is on record?
The AC50 was 12.6 µM [falling, partial curve].

Which AC50 [1] does the source give for `Nc1nn(-c2ccccc2)nc1C(=O)OCc1c(F)cccc1Cl` here?
The AC50 was 0.398 µM [rising, full curve].

Which AC50 [1] does the source give for `COc1cc(Nc2nc(SCC(=O)c3ccc(Cl)c(Cl)c3)nc3ccccc23)cc(OC)c1` here?
The AC50 was 0.794 µM [falling, full curve].

For `Cc1cc(C(=O)NCc2ccccc2)c2c(C)nn(-c3cccc(F)c3)c2n1`, which AC50 [1] is on record?
Its AC50 is 0.251 µM [falling, single point].

For `O=C(Cn1c(=O)c2cccn2c2ccccc21)NCc1ccccc1F`, which AC50 [1] is on record?
The AC50 was 20 µM [falling, partial curve].

For `Cc1cccc(N(CC(=O)NCCSCc2ccccc2)S(=O)(=O)c2ccccc2)c1C`, which AC50 [1] is on record?
The AC50 was 12.6 µM [falling, partial curve].

Which AC50 [1] does the source give for `Cc1ccc(-c2c(C)c(-c3ccc(F)cc3)nc(N)c2C#N)o1` here?
Its AC50 is 12.6 µM [falling, partial curve].

With `Cc1ccc(C(=O)c2cn(Cc3ccccc3)c3nc(C)ccc3c2=O)cc1` as the compound, how does the AC50 [1] read?
Its AC50 is 39.8 µM [falling, single point].

With `Cc1nc(N2CCCC2)c2c(C(=O)N3CCN(c4cc(Cl)ccc4C)CC3)c(C)oc2n1` as the compound, how does the AC50 [1] read?
The AC50 was 31.6 µM [falling, single point].

With `CCn1c(=O)c(=O)n(CC)c2cc(S(=O)(=O)Nc3ccc(C)cc3)ccc21` as the compound, how does the AC50 [1] read?
Its AC50 is 15.8 µM [falling, partial curve].
